{"source": "patent US20070059272A1", "about": "(priority 2005, published 2007)", "tested_on": "MDCK cells", "format": "cell-based"}
{"smiles": "CN1CC[C@]23c4c5ccc(O)c4O[C@H]2[C@@H](O)C=C[C@H]3[C@H]1C5", "note": "[morphine]", "values": [{"measurement": "TEER of MDCK cells following apical exposure to PA27853 plus opioid", "value": "more profound decrease in the TEER"}]}
